Results on three substances are retold here after publication PMC9719212.

By UniProt entry, the sequences of proteins in these tests, tags left out. Residues count along the entry.
UniProt P16070, residues 21-742: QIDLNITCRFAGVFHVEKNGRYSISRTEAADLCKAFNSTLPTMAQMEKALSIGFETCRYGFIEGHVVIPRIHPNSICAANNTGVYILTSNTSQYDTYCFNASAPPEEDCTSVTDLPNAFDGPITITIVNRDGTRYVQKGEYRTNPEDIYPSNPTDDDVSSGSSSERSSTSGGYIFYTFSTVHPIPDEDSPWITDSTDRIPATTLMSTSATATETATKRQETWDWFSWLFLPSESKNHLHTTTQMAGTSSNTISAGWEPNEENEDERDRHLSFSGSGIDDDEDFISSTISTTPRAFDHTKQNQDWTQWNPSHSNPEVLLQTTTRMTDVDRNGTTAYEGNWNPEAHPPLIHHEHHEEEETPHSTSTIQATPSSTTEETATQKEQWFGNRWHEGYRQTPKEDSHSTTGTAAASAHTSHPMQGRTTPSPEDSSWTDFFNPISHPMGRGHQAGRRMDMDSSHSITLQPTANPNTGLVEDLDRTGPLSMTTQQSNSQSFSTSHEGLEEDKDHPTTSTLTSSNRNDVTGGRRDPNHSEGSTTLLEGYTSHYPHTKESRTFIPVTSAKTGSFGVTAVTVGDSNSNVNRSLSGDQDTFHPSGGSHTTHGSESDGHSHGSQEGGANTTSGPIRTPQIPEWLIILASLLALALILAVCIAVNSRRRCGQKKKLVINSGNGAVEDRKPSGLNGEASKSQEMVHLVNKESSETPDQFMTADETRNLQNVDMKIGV
UniProt P21802, residues 22-821: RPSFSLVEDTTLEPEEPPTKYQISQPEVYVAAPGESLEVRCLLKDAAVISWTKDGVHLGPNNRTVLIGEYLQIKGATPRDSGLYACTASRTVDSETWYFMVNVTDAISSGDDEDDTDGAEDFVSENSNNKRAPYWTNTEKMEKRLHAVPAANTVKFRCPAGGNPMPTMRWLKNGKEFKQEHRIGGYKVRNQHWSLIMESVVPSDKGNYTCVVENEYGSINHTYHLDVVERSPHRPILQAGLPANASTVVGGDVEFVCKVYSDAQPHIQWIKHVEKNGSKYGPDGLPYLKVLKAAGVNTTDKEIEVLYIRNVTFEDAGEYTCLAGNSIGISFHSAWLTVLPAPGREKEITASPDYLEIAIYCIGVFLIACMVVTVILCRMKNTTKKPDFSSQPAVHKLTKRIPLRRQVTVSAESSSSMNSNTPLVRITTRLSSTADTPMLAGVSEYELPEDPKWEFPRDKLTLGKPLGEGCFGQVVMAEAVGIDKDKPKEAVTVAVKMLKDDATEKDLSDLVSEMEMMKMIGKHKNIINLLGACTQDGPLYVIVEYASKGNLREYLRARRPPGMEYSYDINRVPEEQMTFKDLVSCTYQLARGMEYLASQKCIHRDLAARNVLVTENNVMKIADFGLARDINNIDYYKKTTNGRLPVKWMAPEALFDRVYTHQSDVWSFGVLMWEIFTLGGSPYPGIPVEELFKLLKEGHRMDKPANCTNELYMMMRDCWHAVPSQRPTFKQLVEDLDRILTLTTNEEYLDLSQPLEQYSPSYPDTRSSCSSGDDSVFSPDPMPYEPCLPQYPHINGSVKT
UniProt P21926: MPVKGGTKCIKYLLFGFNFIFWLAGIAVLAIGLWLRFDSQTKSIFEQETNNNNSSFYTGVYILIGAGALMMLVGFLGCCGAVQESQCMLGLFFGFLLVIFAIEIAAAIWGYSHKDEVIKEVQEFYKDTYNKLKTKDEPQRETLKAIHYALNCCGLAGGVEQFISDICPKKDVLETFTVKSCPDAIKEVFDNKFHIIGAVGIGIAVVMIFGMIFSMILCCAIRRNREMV

No constants are given. Whether binding was seen depends on the method and setting. Binding seen in cells or lysates may run through a third protein. Some entries that bind do so weakly or less than the wild type.

Test [1] addresses CD44 (human (endogenous in HUVECs)) (UniProt P16070). Description: proximity ligation; Duolink in situ PLA on fixed, permeabilized HUVECs on fibronectin-coated glass; CD44 rabbit antibody paired with FGFR2, LaminA/C or CD9 mouse antibody; endogenous protein levels, distances < 40 nm.
The target of test [2] is fibroblast growth factor receptor 2 (human (endogenous in HUVECs)) (UniProt P21802). Description: co-IP; endogenous proteins in HUVEC lysate (IP lysis buffer with protease inhibitors); 2 ug CD44 rabbit antibody, FGFR2 rabbit antibody or normal rabbit IgG, Protein G Sepharose, 4 °C; Western blot.
Test [3] addresses CD44 (human (endogenous in HUVECs)) (UniProt P16070). The test is described as above.

For the substance CD9 (from UniProt P21926 1-228), in test [1], the binding entry was “binds”.
Turning to CD44 (from UniProt P16070 21-742), the binding entry in test [2] is recorded as “binds”.
On to “fibroblast growth factor receptor 2 (from UniProt P21802 22-821)”, for which the binding result in test [3] and in test [1] was “binds” throughout.
